# Measured values as given in the supplement of paper PMC7666118.
# The list shows a part of the results.
# Assays:
# VKORC1 = VKORC1 (UniProt Q9BQB6); assay: dose-dependent thermal stabilisation call (2D-TPP, DLPTP, 10% FDR) (binary (1 = stabilised)); higher = stabilised by the compound; conditions: system: HL-60 intact cells; concentration range 0.04-10 µM
# VKORC1L1 = biological target: T1, VKORC1L1 (UniProt Q8N0U8); assay: as above; conditions: system: HL-60 intact cells; concentration range 0.04-10 µM
# T1 sequence (whole entry): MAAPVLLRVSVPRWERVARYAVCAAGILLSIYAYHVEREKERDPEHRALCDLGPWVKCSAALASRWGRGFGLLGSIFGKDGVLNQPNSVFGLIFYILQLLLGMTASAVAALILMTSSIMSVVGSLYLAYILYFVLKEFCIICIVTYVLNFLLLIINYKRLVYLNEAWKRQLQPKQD
smiles,measurement,setting,value
COc1ccc(Cn2ccc3ccc(C(=O)NO)cc32)cc1,dose-dependent thermal stabilisation call,VKORC1,inactive: 0
same,dose-dependent thermal stabilisation call,VKORC1L1,inactive: 0
